Test results: the supplement of paper PMC12819154, “High-throughput peptide-centric local stability assay extends protein–ligand identification to membrane proteins, tissues and bacteria” (Nature Structural & Molecular Biology, 2025)
The other results are listed elsewhere or left out. Most entries show no effect beyond the scatter of the controls.

Chains of the proteins cited; added tags and fusions are not shown. Lines headed by an entry give the natural chain unless they say otherwise; changes in a name come on top.
UniProt Q8NG06: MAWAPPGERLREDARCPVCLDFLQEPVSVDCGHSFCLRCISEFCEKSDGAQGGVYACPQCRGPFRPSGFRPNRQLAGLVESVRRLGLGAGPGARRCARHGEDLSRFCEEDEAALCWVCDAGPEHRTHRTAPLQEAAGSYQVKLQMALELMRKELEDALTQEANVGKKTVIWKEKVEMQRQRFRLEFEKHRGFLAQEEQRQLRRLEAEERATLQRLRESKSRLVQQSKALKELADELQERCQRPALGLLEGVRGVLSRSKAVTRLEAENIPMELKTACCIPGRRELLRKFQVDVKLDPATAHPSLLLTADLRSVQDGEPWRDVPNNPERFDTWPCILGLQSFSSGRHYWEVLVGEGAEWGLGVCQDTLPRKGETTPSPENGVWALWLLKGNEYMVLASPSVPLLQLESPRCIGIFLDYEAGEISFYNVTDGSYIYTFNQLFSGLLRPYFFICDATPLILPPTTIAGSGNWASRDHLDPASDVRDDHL
UniProt Q8NI60: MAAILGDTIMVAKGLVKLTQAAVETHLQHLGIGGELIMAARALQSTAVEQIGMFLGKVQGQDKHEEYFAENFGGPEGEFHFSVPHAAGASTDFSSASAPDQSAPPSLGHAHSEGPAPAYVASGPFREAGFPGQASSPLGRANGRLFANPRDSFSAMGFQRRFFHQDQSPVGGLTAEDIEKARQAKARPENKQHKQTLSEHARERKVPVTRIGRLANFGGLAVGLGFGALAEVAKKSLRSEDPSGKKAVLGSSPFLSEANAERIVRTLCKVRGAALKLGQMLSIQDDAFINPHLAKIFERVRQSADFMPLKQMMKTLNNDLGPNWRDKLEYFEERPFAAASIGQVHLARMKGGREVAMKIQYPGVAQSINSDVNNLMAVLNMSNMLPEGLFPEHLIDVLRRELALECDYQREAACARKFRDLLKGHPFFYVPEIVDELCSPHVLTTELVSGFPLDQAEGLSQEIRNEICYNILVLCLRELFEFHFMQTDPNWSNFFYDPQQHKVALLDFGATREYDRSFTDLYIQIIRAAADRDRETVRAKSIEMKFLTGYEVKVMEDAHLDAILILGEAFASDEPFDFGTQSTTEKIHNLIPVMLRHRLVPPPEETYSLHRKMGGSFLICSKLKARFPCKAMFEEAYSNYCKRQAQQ
UniProt Q8N5I9: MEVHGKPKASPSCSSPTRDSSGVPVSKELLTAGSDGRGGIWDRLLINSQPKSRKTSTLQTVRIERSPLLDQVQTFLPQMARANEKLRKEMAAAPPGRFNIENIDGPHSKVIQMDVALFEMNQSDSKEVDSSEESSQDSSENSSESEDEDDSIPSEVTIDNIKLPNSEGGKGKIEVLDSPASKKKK
UniProt Q8NDL9: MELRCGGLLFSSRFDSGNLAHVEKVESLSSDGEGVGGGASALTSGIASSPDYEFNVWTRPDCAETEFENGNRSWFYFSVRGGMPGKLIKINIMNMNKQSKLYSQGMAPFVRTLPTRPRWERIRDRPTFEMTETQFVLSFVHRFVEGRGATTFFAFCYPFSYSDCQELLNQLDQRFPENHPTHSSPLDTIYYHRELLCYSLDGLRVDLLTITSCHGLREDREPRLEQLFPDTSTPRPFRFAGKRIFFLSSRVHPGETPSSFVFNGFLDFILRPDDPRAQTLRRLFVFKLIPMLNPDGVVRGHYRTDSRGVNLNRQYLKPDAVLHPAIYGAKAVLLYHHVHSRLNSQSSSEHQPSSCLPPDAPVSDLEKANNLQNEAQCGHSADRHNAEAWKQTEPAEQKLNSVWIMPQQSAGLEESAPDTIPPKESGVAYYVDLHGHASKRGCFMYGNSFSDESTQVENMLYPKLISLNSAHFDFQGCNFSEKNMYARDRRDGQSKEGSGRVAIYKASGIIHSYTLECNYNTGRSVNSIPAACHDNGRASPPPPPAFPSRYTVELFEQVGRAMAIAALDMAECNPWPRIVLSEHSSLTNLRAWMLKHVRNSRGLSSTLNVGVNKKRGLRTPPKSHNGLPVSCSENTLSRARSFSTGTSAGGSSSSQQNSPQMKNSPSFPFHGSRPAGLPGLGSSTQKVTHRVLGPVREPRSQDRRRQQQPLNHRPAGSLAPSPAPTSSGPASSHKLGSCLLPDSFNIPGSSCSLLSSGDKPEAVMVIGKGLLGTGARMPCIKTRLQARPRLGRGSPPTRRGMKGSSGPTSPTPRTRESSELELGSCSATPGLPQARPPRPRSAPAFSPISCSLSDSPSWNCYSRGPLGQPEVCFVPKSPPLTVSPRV
UniProt Q8NFH3: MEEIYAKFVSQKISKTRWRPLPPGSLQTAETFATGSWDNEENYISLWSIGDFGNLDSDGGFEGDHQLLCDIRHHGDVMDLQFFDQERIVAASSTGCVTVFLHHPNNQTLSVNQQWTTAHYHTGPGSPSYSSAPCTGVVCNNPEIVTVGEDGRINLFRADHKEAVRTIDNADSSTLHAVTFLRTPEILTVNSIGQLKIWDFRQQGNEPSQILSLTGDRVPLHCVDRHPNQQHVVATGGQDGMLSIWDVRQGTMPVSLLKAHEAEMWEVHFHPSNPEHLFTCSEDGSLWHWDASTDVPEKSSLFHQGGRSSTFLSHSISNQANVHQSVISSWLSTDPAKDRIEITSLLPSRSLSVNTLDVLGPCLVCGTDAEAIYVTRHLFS
UniProt Q8NBT2: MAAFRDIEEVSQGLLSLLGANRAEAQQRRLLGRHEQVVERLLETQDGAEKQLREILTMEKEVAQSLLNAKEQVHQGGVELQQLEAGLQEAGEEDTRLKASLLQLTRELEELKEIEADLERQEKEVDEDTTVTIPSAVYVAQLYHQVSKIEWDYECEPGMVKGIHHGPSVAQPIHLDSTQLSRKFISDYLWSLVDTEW
UniProt Q8NI22: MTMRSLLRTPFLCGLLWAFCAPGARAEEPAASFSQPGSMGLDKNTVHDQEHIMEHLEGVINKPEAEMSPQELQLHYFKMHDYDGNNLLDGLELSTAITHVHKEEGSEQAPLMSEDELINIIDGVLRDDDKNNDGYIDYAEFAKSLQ
UniProt Q8N567: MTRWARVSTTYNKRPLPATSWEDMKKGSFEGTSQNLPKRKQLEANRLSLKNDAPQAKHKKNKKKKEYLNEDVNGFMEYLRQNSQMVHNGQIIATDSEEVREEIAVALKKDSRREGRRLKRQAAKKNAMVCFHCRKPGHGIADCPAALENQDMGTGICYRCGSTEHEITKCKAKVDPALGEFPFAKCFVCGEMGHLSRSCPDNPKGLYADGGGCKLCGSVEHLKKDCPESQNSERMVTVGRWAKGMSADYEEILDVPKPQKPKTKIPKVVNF
UniProt Q8N5G2: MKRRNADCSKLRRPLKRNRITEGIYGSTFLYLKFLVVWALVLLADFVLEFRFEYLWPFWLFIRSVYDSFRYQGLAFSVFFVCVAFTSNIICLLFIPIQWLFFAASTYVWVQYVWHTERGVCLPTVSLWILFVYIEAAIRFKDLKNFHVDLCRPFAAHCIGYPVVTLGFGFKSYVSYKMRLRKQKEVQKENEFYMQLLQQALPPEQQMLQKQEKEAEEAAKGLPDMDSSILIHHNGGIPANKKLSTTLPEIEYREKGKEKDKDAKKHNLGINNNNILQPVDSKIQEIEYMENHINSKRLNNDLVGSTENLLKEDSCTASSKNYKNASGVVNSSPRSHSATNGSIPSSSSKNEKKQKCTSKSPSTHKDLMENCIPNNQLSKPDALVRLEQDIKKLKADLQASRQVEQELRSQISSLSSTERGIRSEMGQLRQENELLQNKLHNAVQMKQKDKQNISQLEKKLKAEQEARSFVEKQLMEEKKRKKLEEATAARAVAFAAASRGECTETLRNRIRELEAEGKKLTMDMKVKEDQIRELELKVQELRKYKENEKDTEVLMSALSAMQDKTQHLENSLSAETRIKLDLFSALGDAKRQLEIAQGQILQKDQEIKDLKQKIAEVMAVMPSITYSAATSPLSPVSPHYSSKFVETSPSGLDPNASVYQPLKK
UniProt Q8NEL9: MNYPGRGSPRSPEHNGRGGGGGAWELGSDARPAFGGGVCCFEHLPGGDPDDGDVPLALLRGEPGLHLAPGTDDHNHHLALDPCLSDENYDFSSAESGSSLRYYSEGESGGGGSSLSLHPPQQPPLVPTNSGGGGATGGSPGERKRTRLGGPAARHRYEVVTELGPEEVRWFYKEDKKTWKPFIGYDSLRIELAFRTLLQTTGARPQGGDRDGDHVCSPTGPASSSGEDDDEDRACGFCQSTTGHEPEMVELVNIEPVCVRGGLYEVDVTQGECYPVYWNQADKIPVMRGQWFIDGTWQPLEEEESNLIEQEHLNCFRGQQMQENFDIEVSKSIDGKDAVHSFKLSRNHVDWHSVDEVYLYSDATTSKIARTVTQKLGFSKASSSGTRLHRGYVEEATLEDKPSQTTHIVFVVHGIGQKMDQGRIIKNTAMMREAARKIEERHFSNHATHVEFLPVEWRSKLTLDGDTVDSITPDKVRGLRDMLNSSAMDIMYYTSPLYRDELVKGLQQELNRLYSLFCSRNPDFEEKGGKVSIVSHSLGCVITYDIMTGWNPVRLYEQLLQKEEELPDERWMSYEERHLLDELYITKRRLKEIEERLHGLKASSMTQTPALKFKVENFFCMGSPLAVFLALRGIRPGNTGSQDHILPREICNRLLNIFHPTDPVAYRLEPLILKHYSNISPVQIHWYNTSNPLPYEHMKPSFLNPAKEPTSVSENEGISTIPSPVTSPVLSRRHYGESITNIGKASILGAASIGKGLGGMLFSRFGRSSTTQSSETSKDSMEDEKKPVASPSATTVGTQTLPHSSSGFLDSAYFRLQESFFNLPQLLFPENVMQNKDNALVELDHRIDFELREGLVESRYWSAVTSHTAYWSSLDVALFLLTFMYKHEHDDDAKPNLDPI
UniProt Q8NDX1: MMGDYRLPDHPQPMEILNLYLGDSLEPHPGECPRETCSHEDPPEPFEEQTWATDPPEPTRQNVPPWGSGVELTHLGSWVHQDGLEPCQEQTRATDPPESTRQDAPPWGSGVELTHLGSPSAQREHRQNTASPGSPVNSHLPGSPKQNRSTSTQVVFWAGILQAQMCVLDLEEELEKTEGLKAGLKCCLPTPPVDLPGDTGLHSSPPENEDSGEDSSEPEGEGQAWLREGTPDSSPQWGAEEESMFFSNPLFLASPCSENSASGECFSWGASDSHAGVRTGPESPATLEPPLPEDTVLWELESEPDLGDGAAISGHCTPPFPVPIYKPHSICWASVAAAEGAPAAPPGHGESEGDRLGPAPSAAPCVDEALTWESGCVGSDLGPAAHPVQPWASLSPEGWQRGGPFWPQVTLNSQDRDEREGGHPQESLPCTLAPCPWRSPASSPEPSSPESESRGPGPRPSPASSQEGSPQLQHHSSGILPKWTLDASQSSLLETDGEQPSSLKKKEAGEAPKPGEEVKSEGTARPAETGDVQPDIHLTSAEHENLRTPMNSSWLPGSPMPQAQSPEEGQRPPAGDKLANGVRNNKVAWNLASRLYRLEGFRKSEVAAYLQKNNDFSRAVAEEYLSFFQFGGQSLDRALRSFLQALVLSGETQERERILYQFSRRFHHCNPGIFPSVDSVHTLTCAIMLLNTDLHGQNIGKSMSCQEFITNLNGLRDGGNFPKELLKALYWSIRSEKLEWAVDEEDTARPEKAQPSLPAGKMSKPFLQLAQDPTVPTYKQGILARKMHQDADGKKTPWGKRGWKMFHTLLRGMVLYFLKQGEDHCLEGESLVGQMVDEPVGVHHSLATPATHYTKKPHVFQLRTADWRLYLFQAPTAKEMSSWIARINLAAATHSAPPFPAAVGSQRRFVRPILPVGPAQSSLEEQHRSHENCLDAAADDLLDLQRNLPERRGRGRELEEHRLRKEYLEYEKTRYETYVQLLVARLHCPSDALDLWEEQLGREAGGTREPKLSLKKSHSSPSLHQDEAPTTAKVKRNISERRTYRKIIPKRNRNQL
UniProt Q8TB45, whole entry: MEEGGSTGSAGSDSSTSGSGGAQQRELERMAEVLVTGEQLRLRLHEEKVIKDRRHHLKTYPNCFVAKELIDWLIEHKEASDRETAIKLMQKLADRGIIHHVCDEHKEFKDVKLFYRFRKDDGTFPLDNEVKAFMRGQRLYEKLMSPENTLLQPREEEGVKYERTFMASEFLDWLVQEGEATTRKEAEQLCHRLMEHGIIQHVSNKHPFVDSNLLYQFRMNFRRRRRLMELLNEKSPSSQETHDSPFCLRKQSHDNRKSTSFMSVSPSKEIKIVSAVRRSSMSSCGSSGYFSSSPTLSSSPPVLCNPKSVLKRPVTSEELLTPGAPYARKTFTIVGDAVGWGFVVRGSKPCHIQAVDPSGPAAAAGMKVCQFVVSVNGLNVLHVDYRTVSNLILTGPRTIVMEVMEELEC
UniProt Q8TA86: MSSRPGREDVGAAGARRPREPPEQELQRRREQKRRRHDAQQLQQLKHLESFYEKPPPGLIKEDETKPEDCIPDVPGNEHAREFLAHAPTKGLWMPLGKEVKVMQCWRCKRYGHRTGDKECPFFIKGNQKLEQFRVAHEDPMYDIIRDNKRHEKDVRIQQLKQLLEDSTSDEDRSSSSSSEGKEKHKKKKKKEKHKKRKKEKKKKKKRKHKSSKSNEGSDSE

compound: CN[C@@H]1C[C@H]2O[C@@](C)([C@@H]1OC)n1c3ccccc3c3c4c(c5c6ccccc6n2c5c31)C(=O)NC4 [staurosporine]; assay: log2 fold change of tryptic peptide abundance, ligand vs vehicle (limited proteolysis) (log2 ratio); higher = more trypsin-susceptible (destabilized); conditions: ligand concentration: 20 uM; sample: K562 cleared lysate; digestion: 4 min, 22 C (HT-PELSA RT4min, Orbitrap Astral)

| Target | log2 fold change |
| --- | --- |
| TRIM58 (peptide sequence: LDPATAHPSLLLTADLR, peptide start residue: 295) (UniProt Q8NG06) | 0.578 |
| UniProt Q8NI60 (peptide sequence: AAILGDTIMVAK, peptide start residue: 2) | 0.425 |
| C12orf45 (peptide sequence: TSTLQTVR, peptide start residue: 55) (UniProt Q8N5I9) | -0.193 |
| AGBL5 (peptide sequence: SHNGLPVSCSENTLSR, peptide start residue: 623) (UniProt Q8NDL9) | -0.127 |
| NUP43 (peptide sequence: TPEILTVNSIGQLK, peptide start residue: 183) (UniProt Q8NFH3) | -0.559 |
| SPC24 (peptide sequence: HEQVVER, peptide start residue: 34) (UniProt Q8NBT2) | 0.089 |
| NHLRC2 (peptide sequence: MVSVLPIFR, peptide start residue: 565) (UniProt Q8NBF2) | 0.193 |
| UniProt Q8N9L9 (peptide sequence: IKVAFSGLVDIVDIR, peptide start residue: 282) | -0.425 |
| PPP1R14C (peptide sequence: VFFQSPR, peptide start residue: 21) (UniProt Q8TAE6) | 0.0153 |
| MCFD2 (peptide sequence: DDDKNNDGYIDYAEFAK, peptide start residue: 127) (UniProt Q8NI22) | -0.0979 |
| PTGR2 (peptide sequence: VVLNSRPGK, peptide start residue: 6) (UniProt Q8N8N7) | 0.427 |
| UniProt Q8NCA9 (peptide sequence: GFTQSSVLSGHAR, peptide start residue: 232) | -0.122 |
| UBR7 (peptide sequence: TELKDYLKR, peptide start residue: 381) (UniProt Q8N806) | -0.719 |
| UniProt Q8N594 (peptide sequence: SPSEPAHPEATTPGK, peptide start residue: 214) | -0.767 |
| UniProt Q8NEV8 (peptide sequence: TESISVPTSDHR, peptide start residue: 989) | 0.414 |
| ZCCHC9 (peptide sequence: AKVDPALGEFPFAK, peptide start residue: 172) (UniProt Q8N567) | -0.329 |
| DDX51 (peptide sequence: FLIIDEADR, peptide start residue: 367) (UniProt Q8N8A6) | -0.293 |
| WDR36 (peptide sequence: VVNLGVLAQK, peptide start residue: 815) (UniProt Q8NI36) | 0.203 |
| UniProt Q8N9E0 (peptide sequence: ALAEFEEK, peptide start residue: 57) | -0.0379 |
| UniProt Q8N5G2 (peptide sequence: KHNLGINNNNILQPVDSK, peptide start residue: 265) | -0.526 |
| PRPF38A (peptide sequence: RYVLEEAEQLEPR, peptide start residue: 168) (UniProt Q8NAV1) | -0.24 |
| DDHD1 (peptide sequence: HRYEVVTELGPEEVR, peptide start residue: 155) (UniProt Q8NEL9) | -0.221 |
| PSD4 (peptide sequence: SHSSPSLHQDEAPTTAK, peptide start residue: 1017) (UniProt Q8NDX1) | 1.11 |
| UniProt Q8TB45 (peptide sequence: EIKIVSAVR, peptide start residue: 269) | -0.155 |
| RP9 (peptide sequence: SSRPGREDVGAAGAR, peptide start residue: 2) (UniProt Q8TA86) | -0.755 |
| NIN (peptide sequence: LQQENSILR, peptide start residue: 798) (UniProt Q8N4C6) | -0.115 |

A second format for some results above.
UniProt Q8N594 (peptide sequence: SPSEPAHPEATTPGK, peptide start residue: 214)
  log2 fold change: -0.767
UniProt Q8NEV8 (peptide sequence: TESISVPTSDHR, peptide start residue: 989)
  log2 fold change: 0.414
